Assay results: the supplement of paper PMC4862054
Most entries show no effect beyond the scatter of the controls.

Key:
Assay in all cases: normalised response (% of control), CellTox Green; higher = less cell death (100 = DMSO, 0 = benzethonium chloride kill control)
Conditions in all cases: incubation time: 72 h
[1] = tested on: MDA-MB-453
Experimental: (§1)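 DSRT, 72 h incubation, CellTox Green / CellTiter-Glo readout. Signal is normalised to DMSO and benzethonium chloride controls. Value is the normalised response at the lowest tested concentration.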

[2] = tested on: MDA-MB-231
Experimental: as §1

[3] = tested on: CAL-51
Experimental: as §1

[4] = tested on: DU-4475
Experimental: as §1

[5] = tested on: BT-474
Experimental: as §1

[6] = tested on: Hs578T
Experimental: as §1

[7] = tested on: BT-549
Experimental: as §1

[8] = tested on: MDA-MB-468
Experimental: as §1

[9] = tested on: HCC1143
Experimental: as §1

[10] = tested on: CAL-120
Experimental: as §1

[11] = tested on: MCF-10A
Experimental: as §1

[12] = tested on: MDA-MB-436
Experimental: as §1

[13] = tested on: MFM-223
Experimental: as §1

[14] = tested on: CAL-148
Experimental: as §1

[15] = tested on: HCC1599
Experimental: as §1

[16] = tested on: HDQ-P1
Experimental: as §1

[17] = tested on: CAL-85-1
Experimental: as §1

[18] = tested on: HCC1937
Experimental: as §1

Compound | normalised response [1] | normalised response [2] | normalised response [3] | normalised response [4] | normalised response [5] | normalised response [6] | normalised response [7] | normalised response [8] | normalised response [9] | normalised response [10] | normalised response [11] | normalised response [12] | normalised response [13] | normalised response [14] | normalised response [15] | normalised response [16] | normalised response [17] | normalised response [18]
CC(C)(C)NC(=O)[C@H]1CC[C@H]2[C@@H]3CC[C@H]4NC(=O)C=C[C@]4(C)[C@H]3CC[C@]12C [Finasteride] (1 nM) | 104% | 102% | 116% | 104% | 98.7% | 84.5% | 99.3% | 58.4% | 118% | 99.8% | 104% | 66.5% | 83.2% | 102% | 89.8% | 77.9% | 108% | 109%
CN(C)C[C@@H]1CCn2cc(c3ccccc32)C2=C(C(=O)NC2=O)c2cn(c3ccccc23)CCO1 [Ruboxistaurin] (1 nM) | 96.1% | 98.5% | 113% | 101% | 97.9% | 94.4% | 99.3% | 96.3% | 112% | 99.4% | 104% | 93% | 84.6% | 100% | 89.5% | 99.6% | 105% | 71%
Clc1ccc(Nc2nnc(Cc3ccncc3)c3ccccc23)cc1 [Vatalanib] (1 nM) | 103% | 94.3% | 103% | 101% | 106% | 84.7% | 97.6% | 94.1% | 118% | 98.8% | 105% | 82.8% | 102% | 93.6% | 105% | 101% | 99.6% | 89%
CS(=O)(=O)c1ccc(C(=O)Nc2ccc(Cl)c(-c3ccccn3)c2)c(Cl)c1 [Vismodegib] (1 nM) | 103% | 93.9% | 117% | 96.4% | 84.5% | 81.7% | 98.1% | 104% | 80.5% | 98.3% | 103% | 78% | 101% | 75.6% | 88.2% | 51.3% | 97.5% | 72.9%
